Data from patent US6242442A (Alcon Laboratories, Inc., priority 2000, dated 2001).

Assay: Acid-base balance and arterial gases, one-week multidose topical crossover study in rabbits
Format: in vivo, Dutch-Belted rabbits
Conditions: 2% suspension topical
Procedure: Treatment measurements were made 90 minutes after the last dose on day eight. Optic nerve head blood flow and measured systemic variables were not changed by vehicle treatment. […] It is established that the vasculature of the ONH responds to increases in arterial O2 or CO2 tension by a reduction or an enhancement of ONH blood flow respectively.

CCN[C@H]1CN(CCCOC)S(=O)(=O)c2sc(S(N)(=O)=O)cc21 [brinzolamide, R-(+)-4ethylamino-3,4-dihydro-2-(3-methoxy)propyl-2H thieno[3,2,e]1,2thiazene-6sulfonamide-1,1dioxide]
arterial CO2 tension: below
arterial O2 tension: above baseline levels
